Most values lie at the floor of the assay. Slopes are relative: functional sequences can read slightly below zero.
Tested on: Saccharomyces cerevisiae PS128 hsf1 delta, HSF1(1-493) fusion
Test: growth estimate (transactivation domain function in HSF1 fusion, heat-shock survival) (a.u. (slope of normalised read count over time)); higher = stronger growth at 37°C, i.e. more transactivation activity
Details: library: random library

Row | Substance | growth estimate
1 | VHYIDRGVCSIVYATRR | < -0.25
2 | VIADRSQSIESVLPDRSWGD | < -0.25
3 | VIANQAGDSVF | < -0.25
4 | VIASKRRGVALFVAV | < -0.25
5 | VIAWVSQAHKSKLLCISWLA | < -0.25
6 | VICNKKQRSTAIGAIE | < -0.25
7 | VIE | < -0.25
8 | VIENLLLSG | < -0.25
9 | VIEWSLTGVRRGCWNC | < -0.25
10 | VIFAGPSGPIQ | < -0.25
11 | VIFCLGVLVKPNRDCLWRCN | -0.201
12 | VIFGLPRVRLRILR | < -0.25
13 | VIFMRTATSQAMGPKLSVDP | < -0.25
14 | VIGARHGQGSGWAPSGSVPV | < -0.25
15 | VIGHR | < -0.25
16 | VIGSGLGMSICQYADRELIR | < -0.25
17 | VIGSMLQNGSFLAVWWSTPG | < -0.25
18 | VIHISPY | < -0.25
19 | VIIGTSLRANV | -0.245
20 | VIILPGMARICHPGE | < -0.25
21 | VIILYRDSINGLSSMASRGV | < -0.25
22 | VIIVRHQIKNVFRI | < -0.25
23 | VILNVIPGGVSGSPACFCQA | < -0.25
24 | VIMDCLWRMRYWNRDARSLP | < -0.25
25 | VIMSPGFRNR | < -0.25

Row | Substance | growth estimate
26 | VIPG | < -0.25
27 | VIR | < -0.25
28 | VIRA | < -0.25
29 | VIRLSDSCQMSSLDHVSI | < -0.25
30 | VIRWSDLSLTSAKDKGMLQM | < -0.25
31 | VISGATS | < -0.25
32 | VISWVMKNLDPETTNGLAFG | < -0.25
33 | VITLR | < -0.25
34 | VITRIFRWD | < -0.25
35 | VITYRTTQTANK | < -0.25
36 | VIVQPIMALNNGVAVHRAIS | < -0.25
37 | VIYGSFRFRIPKSACNLPRV | < -0.25
38 | VKATVGNDAHTCR | < -0.25
39 | VKCLRKTREICGLNMSGCLD | < -0.25
40 | VKDGGDNLRGISAKLQSSEL | < -0.25
41 | VKESCGFAPFSRKNG | < -0.25
42 | VKGEYQSRSQTNPEYKSYHS | < -0.25
43 | VKGQWLVTGGQHFNFLLS | < -0.25
44 | VKGRFGPQQVDLSG | < -0.25
45 | VKHRGRRDFARRSPGRGAL | < -0.25
46 | VKKNLRSTS | < -0.25
47 | VKKP | < -0.25
48 | VKLLRSRVT | < -0.25
49 | VKLVRMVTVVSVNYLSPCST | < -0.25
50 | VKMCSP | < -0.25

7 entries from above, in CSV form:
Row,Substance,growth estimate
33,VITLR,< -0.25
34,VITRIFRWD,< -0.25
35,VITYRTTQTANK,< -0.25
36,VIVQPIMALNNGVAVHRAIS,< -0.25
37,VIYGSFRFRIPKSACNLPRV,< -0.25
38,VKATVGNDAHTCR,< -0.25
39,VKCLRKTREICGLNMSGCLD,< -0.25

Going on with the list:

Row | Substance | growth estimate
51 | VKNSSTTSGFGREPQSIQGR | < -0.25
52 | VKPSLRRLHVGFYTS | < -0.25
53 | VKRDRFDSRAWQHIHVPHHS | < -0.25
54 | VKRGAHWSSGRLKCGL | < -0.25
55 | VKRTVRCSGLNFTLQVQNPG | < -0.25
56 | VKSGGVSSLSVLSKKERCQV | < -0.25
57 | VKSRPDSIVRGMAVDEV | -0.245
58 | VKSTSFFLIDSLRFLGTLGI | < -0.25
59 | VKSVESLG | < -0.25
60 | VKSWGFSVGITSYGEAPAGV | < -0.25
61 | VKSWGFSVGITSYGEAPCVR | < -0.25
62 | VKTCARLLS | < -0.25
63 | VKTSDKVLLPRAKLTCYTNR | < -0.25
64 | VKTWDLVSRQIVNLIIVNGN | < -0.25
65 | VKVAGNVIGFCVLKCLCCKT | < -0.25
66 | VKVHEVRRQVRNHGGQTVCQ | < -0.25
67 | VKVLISFIVWDPGSRR | < -0.25
68 | VKVSSPRAEMRGHHSNVDRL | < -0.25
69 | VKWVHVDSLGDS | < -0.25
70 | VKYTHVDICLLLSASRNLR | < -0.25
71 | VLAEPRKISTATG | < -0.25
72 | VLAETEWAESESNLQKADEG | < -0.25
73 | VLATVLL | < -0.25
74 | VLCFRARRGS | < -0.25
75 | VLCVLTNRSHPEKVVIVYTR | < -0.25

Row | Substance | growth estimate
76 | VLDSNHQGVDPPNAMSSVGS | < -0.25
77 | VLEVNVIRSVYGSLGLAVML | < -0.25
78 | VLFAEDHTRRGMRPTAKFRE | < -0.25
79 | VLGFLS | < -0.25
80 | VLGGTRTM | < -0.25
81 | VLGID | < -0.25
82 | VLGSEVHTGV | < -0.25
83 | VLGSRSLLVGGRE | < -0.25
84 | VLI | < -0.25
85 | VLIFRRRL | < -0.25
86 | VLINDRVVYTVIPAGRSASA | < -0.25
87 | VLISK | < -0.25
88 | VLKLRNAKARQFNPADRWRR | < -0.25
89 | VLKSAGYQDAVT | < -0.25
90 | VLKSALRDYKRTTCLPFRRR | < -0.25
91 | VLKSVSLSSYCGVPPWNTGG | < -0.25
92 | VLKVFSDSVKVKIKLNRLIA | < -0.25
93 | VLLAGD | < -0.25
94 | VLLCETGVQHAQFCQSGGCE | < -0.25
95 | VLLGGLIPREAKEDEILSEK | < -0.25
96 | VLLHRQGMHRAATKRGFGVR | < -0.25
97 | VLLSMAL | < -0.25
98 | VLNCIMSNHLNAHFRVDGVD | < -0.25
99 | VLNKSRLCV | < -0.25
100 | VLNLMVCPRARATPLNKCVA | < -0.25

At a glance, some entries already given.
Row | Substance | growth estimate
56 | VKSGGVSSLSVLSKKERCQV | < -0.25
57 | VKSRPDSIVRGMAVDEV | -0.245
58 | VKSTSFFLIDSLRFLGTLGI | < -0.25

Next part:

Row | Substance | growth estimate
101 | VLNNIGGQVLADPPQRLRRG | < -0.25
102 | VLNQEVLCHRGYRHPKSGW | < -0.25
103 | VLNVRVYGDECQPP | < -0.25
104 | VLPIETGLSPASAYHHGWLP | -0.203
105 | VLPLSYGLENGNIYEWHWVS | < -0.25
106 | VLPPEERVHMG | < -0.25
107 | VLR | < -0.25
108 | VLRCNWILHFFRRCECGPRV | < -0.25
109 | VLRLRLNDPN | -0.0184
110 | VLSALAK | < -0.25
111 | VLSCSAPISEQQHMATC | < -0.25
112 | VLSGPGSTAKNMGPKDMRRQ | < -0.25
113 | VLSVDQVTGANGPISSNCGG | < -0.25
114 | VLTALGSGARLPGMDGVWTD | < -0.25
115 | VLTGSVLAGNIYYRAKKGTG | < -0.25
116 | VLTPIRIQFCRVH | < -0.25
117 | VLTPPWTAGANCEYYDAMLV | < -0.25
118 | VLVEFRVEGAIVRQ | < -0.25
119 | VLVGGLVRDTAFMGAHTCIL | < -0.25
120 | VLVHFGSTFADASKGARSVV | < -0.25
121 | VLVSPASMCWQANETPAQRR | < -0.25
122 | VLWVEVSTSIQNKILG | < -0.25
123 | VLWVLCSS | < -0.25
124 | VMARIRWSTHGGPKGNCCPG | -0.229
125 | VMFQPWQSPNFLRPFA | < -0.25

Row | Substance | growth estimate
126 | VMGYVLGTFVTDVSLKIKIK | < -0.25
127 | VMILGEVRFRAEAMEYHTVT | < -0.25
128 | VMKRVPAKSYQ | < -0.25
129 | VMLEGSWNLAFAPLLSPSLC | < -0.25
130 | VMLRLSG | < -0.25
131 | VMNH | < -0.25
132 | VMNSVSW | -0.221
133 | VMPELYGDLAGEPG | < -0.25
134 | VMPSPDVSFLLRIRGSEGFI | < -0.25
135 | VMSSRGEQ | < -0.25
136 | VMTGDG | < -0.25
137 | VMVAVNPRGTQLHIVDGRHW | -0.246
138 | VNAIMIARLVIFCLRKI | < -0.25
139 | VNDPHGSHRFVPP | < -0.25
140 | VNEF | < -0.25
141 | VNFGPDGTYGERNYH | < -0.25
142 | VNGA | < -0.25
143 | VNGLWRD | < -0.25
144 | VNGLYPWRNVA | < -0.25
145 | VNH | < -0.25
146 | VNHKNPLGHSNECTCDEQLS | 0.0245
147 | VNIHWS | < -0.25
148 | VNKDLIIRRHFRLRP | < -0.25
149 | VNMTTSRCRPGPPRQGHEKA | < -0.25
150 | VNNGAWNRSPFLLQSGSSPL | < -0.25

Row | Substance | growth estimate
151 | VNNIEP | < -0.25
152 | VNNTAQLGVQVCDQDFWGI | < -0.25
153 | VNR | < -0.25
154 | VNRANKCDLCGG | < -0.25
155 | VNRGPREAESDASLGITGCL | < -0.25
156 | VNSIESTGNT | < -0.25
157 | VNSLR | < -0.25
158 | VNSNRPRLTCKTEGP | < -0.25
159 | VNVEIGLSYYPNKLNKTYYS | < -0.25
160 | VNVK | < -0.25
161 | VNVLRPDRRVYPAGLSVDC | < -0.25
162 | VPAKGSQKRIVVVVRRHTAL | < -0.25
163 | VPATDTAEVCGTGVRG | < -0.25
164 | VPAYRASHKPIGP | < -0.25
165 | VPDFIQRAHPKWPKFSWRQC | < -0.25
166 | VPESVLAV | < -0.25
167 | VPFSGPQLDVTFQL | < -0.25
168 | VPGGGPIGPSEFNVKSTVPN | < -0.25
169 | VPGGISNGGNRRLGDGLEKP | < -0.25
170 | VPGKCGPKT | < -0.25
171 | VPGKRHCRLGHDLGVNHSDR | < -0.25
172 | VPGSAGNV | < -0.25
173 | VPHHPELTRI | < -0.25
174 | VPIQGWAFALVRQKGQHTTP | < -0.25
175 | VPKRLRSATYRTLVLRLERC | < -0.25

Row | Substance | growth estimate
176 | VPKSECGHVVQRFGRFWQ | < -0.25
177 | VPLFFGIIRVLSCVVSFVMN | < -0.25
178 | VPLLGRCMHAALHWCDNRPA | < -0.25
179 | VPLLPQS | < -0.25
180 | VPLS | < -0.25
181 | VPLTWFVPMECKR | < -0.25
182 | VPLVRFSISEVCLIFMTEHN | < -0.25
183 | VPPC | < -0.25
184 | VPPVQRGRLTEFMLPWGIWW | < -0.25
185 | VPQTWRGPTVFML | < -0.25
186 | VPRESGWVSTSVYSGASF | < -0.25
187 | VPRFWPADTHSFGYSI | < -0.25
188 | VPRGSHSTNQGGPKKAGGNG | < -0.25
189 | VPRIDSKPGQTFFSSVLLQW | < -0.25
190 | VPRRNTPVRYTL | < -0.25
191 | VPSCLSRLNHPSCGGA | < -0.25
192 | VPSRGAGGPMGCDNGRATFL | < -0.25
193 | VPSSGAFRSCGNIETTIHKV | < -0.25
194 | VPSTA | < -0.25
195 | VPT | < -0.25
196 | VPTEFILSALPPLKCSTTSN | -0.231
197 | VPTGFE | < -0.25
198 | VPTTF | < -0.25
199 | VPTTVWLKYGIDQCDITNSP | < -0.25

Reference: the supplement of paper PMC5949888
